The values below come from paper PMC5144010.

Results are given in words; binding and its absence hold for the method and conditions named. Binding seen in cells or lysates may run through a third protein. Some binding calls cover weakened binding; strength is not graded here. Sequences can lack the tags named with a protein.

This test addresses T1, FLAG-tagged kidney injury molecule 1 (KIM-1) (UniProt Q5QNS5).
T1 sequence: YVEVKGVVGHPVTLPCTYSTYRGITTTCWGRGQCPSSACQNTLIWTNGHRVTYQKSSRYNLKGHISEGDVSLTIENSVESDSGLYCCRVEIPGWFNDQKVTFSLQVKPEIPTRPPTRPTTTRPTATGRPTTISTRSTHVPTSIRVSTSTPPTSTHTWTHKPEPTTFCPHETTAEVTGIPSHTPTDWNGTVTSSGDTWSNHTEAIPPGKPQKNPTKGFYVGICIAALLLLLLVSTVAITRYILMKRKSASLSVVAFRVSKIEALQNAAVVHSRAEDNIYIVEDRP
Briefly: co-IP; AIM or sAIM expression vector co-transfected with FLAG-tagged KIM-1 expression vector in HEK293T cells; immunoprecipitation.

B1: AIM expressed with KIM-1-FLAG in HEK293T cells (protein, UniProt Q9QWK4 22-352)
chain: ESPTKVQLVGGAHRCEGRVEVEHNGQWGTVCDDGWDRRDVAVVCRELNCGAVIQTPRGASYQPPASEQRVLIQGVDCNGTEDTLAQCELNYDVFDCSHEEDAGAQCENPDSDLLFIPEDVRLVDGPGHCQGRVEVLHQSQWSTVCKAGWNLQVSKVVCRQLGCGRALLTYGSCNKNTQGKGPIWMGKMSCSGQEANLRSCLLSRLENNCTHGEDTWMECEDPFELKLVGGDTPCSGRLEVLHKGSWGSVCDDNWGEKEDQVVCKQLGCGKSLHPSPKTRKIYGPGAGRIWLDDVNCSGKEQSLEFCRHRLWGYHDCTHKEDVEVICTDFDV
With B1, the binding result is “binds”.
